Data: patent US20250144067A1, “PERSONALIZED STARVATION THERAPY FOR CANCER” (Faeth Therapeutics, Inc., priority 2021, published 2025)
At least one structure is not confirmed: it was looked up by name or label, or the drawing left a doubt.

Assays:
[1] = tested on: NCI-H292 lung cancer cells; assay: FDA drug screening, complete media vs cholesterol-free media without statin (TABLE 1); type: cell-based, human
[2] = tested on: NCI-H292 lung cancer cells; assay: FDA drug screening, complete media vs cholesterol-free media with simvastatin (TABLE 2); type: cell-based, human

## CSCC[C@H](NC(=O)[C@H](Cc1c[nH]c2ccccc12)NC(=O)CCNC(=O)OC(C)(C)C)C(=O)N[C@@H](CC(=O)O)C(=O)N[C@@H](Cc1ccccc1)C(N)=O [Pentagastrin]
[1]; Complete minus Cholesterol-free, […]
  Difference: −0.24
[1]; NCI-H292 cells, cholesterol-free media without statin
  Cholesterol-free: 1.108
[1]; NCI-H292 cells, complete media
  Complete: 0.8666
[2]; NCI-H292 cells, FDA drug library screen, cholesterol-free media with simvastatin 0.04 μM
  Cholesterol-free media + simvastatin (0.04 μM): 1.292
[2]; complete media vs cholesterol-free media + simvastatin (0.04 μM), […]
  Difference: −0.14
